Laboratory results as given in paper PMC3702609.
Results are given in words; binding and its absence hold for the method and conditions named. In cells and extracts the contact can be indirect. Some entries that bind do so weakly or less than the wild type. For some assays here: Where a sequence is shown, tags or fusion partners need not be part of it.

Protein sequences, listed by entry. Tags and fused reporters are not part of them.
UniProt P22317: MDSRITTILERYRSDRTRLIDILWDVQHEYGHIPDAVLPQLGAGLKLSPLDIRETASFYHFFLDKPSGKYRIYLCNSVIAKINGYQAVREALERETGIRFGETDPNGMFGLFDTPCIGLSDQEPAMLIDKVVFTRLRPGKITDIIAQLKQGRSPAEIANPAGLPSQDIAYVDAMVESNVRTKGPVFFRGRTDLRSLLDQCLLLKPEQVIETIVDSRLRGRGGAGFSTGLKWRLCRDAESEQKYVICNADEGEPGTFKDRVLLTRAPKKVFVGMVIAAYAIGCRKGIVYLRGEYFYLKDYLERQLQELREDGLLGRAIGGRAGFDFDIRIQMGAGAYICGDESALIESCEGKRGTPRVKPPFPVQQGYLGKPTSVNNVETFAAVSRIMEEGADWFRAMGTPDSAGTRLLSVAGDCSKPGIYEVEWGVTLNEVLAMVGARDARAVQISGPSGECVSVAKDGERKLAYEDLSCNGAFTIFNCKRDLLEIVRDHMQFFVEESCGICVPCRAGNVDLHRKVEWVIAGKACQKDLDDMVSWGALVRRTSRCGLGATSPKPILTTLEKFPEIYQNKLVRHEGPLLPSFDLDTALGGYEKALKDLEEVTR
UniProt P22318: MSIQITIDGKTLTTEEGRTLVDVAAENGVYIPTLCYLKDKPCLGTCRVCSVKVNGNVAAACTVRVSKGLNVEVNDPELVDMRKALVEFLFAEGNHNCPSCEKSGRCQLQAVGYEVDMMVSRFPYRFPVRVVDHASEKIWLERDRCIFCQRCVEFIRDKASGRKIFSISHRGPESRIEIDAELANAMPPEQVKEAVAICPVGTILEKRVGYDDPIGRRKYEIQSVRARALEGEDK
UniProt P22319: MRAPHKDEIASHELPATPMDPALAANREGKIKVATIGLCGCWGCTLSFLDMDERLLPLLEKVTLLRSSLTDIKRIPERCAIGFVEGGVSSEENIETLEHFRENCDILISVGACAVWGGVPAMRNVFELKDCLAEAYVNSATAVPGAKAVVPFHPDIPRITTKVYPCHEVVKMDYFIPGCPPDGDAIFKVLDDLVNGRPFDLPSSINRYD

T1: HoxI, diaphorase-associated subunit of the soluble [NiFe]-hydrogenase (SH) with NADPH activation site, N-terminally StrepII-tagged (Cupriavidus necator H16) (UniProt Q79IN9)
T1 sequence: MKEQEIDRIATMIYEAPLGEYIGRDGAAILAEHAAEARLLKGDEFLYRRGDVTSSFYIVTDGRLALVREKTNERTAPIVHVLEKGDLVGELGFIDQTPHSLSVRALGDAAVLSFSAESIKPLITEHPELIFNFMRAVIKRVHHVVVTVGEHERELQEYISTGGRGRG

B1: HoxI, diaphorase-associated subunit of the soluble [NiFe]-hydrogenase (SH) with NADPH activation site, N-terminally StrepII-tagged (protein, UniProt Q79IN9 1-167)
chain: T1 sequence

Tests used:
[1] = biological target: T1, HoxI, diaphorase-associated subunit of the soluble [NiFe]-hydrogenase (SH) with NADPH activation site, N-terminally StrepII-tagged (Cupriavidus necator H16); assay: pull-down; Strep-Tactin Superflow affinity chromatography of the soluble extract of E. coli co-expressing the SH subunits (50 mM KPi pH 7.0, elution with 2.5 mM desthiobiotin), then Superdex 200 HR 10/300 gel filtration; SDS-PAGE; cells harvested 36-40 h after inoculation
[2] = biological target: T1, HoxI, diaphorase-associated subunit of the soluble [NiFe]-hydrogenase (SH) with NADPH activation site, N-terminally StrepII-tagged (Cupriavidus necator H16); assay: pull-down; as a1 with a 1 mL StrepTactin Superflow gravity flow column and Superdex 200 gel filtration, strain SH2F, cells harvested after 44 hours of cultivation; SDS-PAGE
[3] = biological target: HoxF, diaphorase large subunit of the NAD+-reducing soluble [NiFe]-hydrogenase (SH), N-terminally StrepII-tagged (Cupriavidus necator H16) (UniProt P22317); assay: pull-down; Strep-Tactin Superflow affinity chromatography of the soluble extract of E. coli co-expressing the SH subunits (50 mM KPi pH 7.0, elution with 2.5 mM desthiobiotin), then Superdex 200 HR 10/300 gel filtration; SDS-PAGE; cells harvested 36-40 h after inoculation
[4] = biological target: T1, HoxI, diaphorase-associated subunit of the soluble [NiFe]-hydrogenase (SH) with NADPH activation site, N-terminally StrepII-tagged (Cupriavidus necator H16); assay: as above; remark: listed apart in the source

| Molecule | binding [1] | binding [2] | binding [3] | binding [4] |
| --- | --- | --- | --- | --- |
| HoxF, diaphorase large subunit of the soluble [NiFe]-hydrogenase (SH), untagged (from UniProt P22317 1-602) | binds | binds |  |  |
| HoxU, diaphorase small subunit of the soluble [NiFe]-hydrogenase (SH) (from UniProt P22318 1-234) | binds | binds | binds |  |
| HoxY, hydrogenase small subunit of the soluble [NiFe]-hydrogenase (SH) (from UniProt P22319 1-209) | binds |  | binds |  |
| B1 |  |  |  | binds |
